Data: US20090166224A1
Results are given in words; binding and its absence hold for the method and conditions named. For some of these results: In cells and extracts the contact can be indirect. Some binding calls cover weakened binding; strength is not graded here. Values belong to the binder of their own block, whether it stands above or below them.

Chains of the proteins cited; added tags and fusions are not shown. Lines headed by an entry give the natural chain unless they say otherwise; changes in a name come on top. A line that says so, or that is headed by a name, gives the form on record, which may keep a tag or linker. Residues count along the entry.
UniProt P02768, residues 25-609: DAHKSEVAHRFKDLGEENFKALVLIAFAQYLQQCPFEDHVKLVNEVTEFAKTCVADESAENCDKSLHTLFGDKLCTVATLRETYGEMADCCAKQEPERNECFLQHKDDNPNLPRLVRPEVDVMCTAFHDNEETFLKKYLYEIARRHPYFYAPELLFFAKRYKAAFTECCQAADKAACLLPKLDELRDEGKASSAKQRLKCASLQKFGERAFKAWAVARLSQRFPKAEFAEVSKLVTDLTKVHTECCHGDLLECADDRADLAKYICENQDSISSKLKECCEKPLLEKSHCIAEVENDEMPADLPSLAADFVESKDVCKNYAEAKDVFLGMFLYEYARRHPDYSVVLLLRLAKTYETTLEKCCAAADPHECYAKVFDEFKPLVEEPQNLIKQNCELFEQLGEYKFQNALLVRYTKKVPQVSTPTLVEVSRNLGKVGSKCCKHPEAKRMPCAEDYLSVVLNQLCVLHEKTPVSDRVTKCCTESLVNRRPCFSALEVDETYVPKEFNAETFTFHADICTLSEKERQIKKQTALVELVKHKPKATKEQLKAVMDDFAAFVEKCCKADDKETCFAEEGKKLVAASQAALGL
UniProt P02649, residues 19-317: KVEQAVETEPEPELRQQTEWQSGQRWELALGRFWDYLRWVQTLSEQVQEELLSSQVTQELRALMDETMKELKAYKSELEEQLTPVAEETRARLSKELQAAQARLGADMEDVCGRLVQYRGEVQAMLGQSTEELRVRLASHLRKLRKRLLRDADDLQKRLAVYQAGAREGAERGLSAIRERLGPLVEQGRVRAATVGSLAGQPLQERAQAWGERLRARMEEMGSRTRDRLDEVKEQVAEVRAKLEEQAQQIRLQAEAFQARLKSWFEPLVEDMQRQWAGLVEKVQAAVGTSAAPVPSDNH
UniProt P01009, residues 25-418: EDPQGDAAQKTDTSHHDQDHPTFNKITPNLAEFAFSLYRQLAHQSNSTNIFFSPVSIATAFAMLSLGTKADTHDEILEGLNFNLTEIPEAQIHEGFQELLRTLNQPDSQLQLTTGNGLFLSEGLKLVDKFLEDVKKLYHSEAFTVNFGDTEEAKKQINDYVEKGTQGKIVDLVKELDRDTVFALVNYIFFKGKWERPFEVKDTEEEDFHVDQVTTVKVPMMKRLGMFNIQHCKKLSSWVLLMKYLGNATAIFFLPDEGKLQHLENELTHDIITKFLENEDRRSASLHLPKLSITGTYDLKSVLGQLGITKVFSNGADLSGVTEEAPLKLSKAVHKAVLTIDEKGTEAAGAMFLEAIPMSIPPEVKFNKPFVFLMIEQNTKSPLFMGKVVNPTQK
IG ALPHA-1 CHAIN C REGION (P01876, form named): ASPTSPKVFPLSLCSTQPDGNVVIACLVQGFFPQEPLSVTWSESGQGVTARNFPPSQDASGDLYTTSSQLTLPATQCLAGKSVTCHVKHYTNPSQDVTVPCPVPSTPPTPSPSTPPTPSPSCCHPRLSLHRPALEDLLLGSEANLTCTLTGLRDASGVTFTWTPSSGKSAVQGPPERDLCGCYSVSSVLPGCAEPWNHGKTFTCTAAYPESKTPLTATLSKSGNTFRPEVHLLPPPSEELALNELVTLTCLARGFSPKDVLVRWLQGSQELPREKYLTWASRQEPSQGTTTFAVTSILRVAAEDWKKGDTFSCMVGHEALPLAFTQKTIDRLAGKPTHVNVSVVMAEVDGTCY

How the values were obtained:
[1] = target: SERUM ALBUMIN (human) (UniProt P02768); test: human serum on M-LAC column, sequential displacer fractions, LC-MS/MS
[2] = target: APOLIPOPROTEIN E (human) (UniProt P02649); test: as above
[3] = target: Alpha-1-antitrypsin (human) (UniProt P01009); test: ELISA on lectin-coated plate, bound glycoprotein detected with IgY and HRP anti-IgY
[4] = target: T1, ALPHA-2-MACROGLOBULIN (human) (UniProt P01023); test: as above
T1 sequence (looked up): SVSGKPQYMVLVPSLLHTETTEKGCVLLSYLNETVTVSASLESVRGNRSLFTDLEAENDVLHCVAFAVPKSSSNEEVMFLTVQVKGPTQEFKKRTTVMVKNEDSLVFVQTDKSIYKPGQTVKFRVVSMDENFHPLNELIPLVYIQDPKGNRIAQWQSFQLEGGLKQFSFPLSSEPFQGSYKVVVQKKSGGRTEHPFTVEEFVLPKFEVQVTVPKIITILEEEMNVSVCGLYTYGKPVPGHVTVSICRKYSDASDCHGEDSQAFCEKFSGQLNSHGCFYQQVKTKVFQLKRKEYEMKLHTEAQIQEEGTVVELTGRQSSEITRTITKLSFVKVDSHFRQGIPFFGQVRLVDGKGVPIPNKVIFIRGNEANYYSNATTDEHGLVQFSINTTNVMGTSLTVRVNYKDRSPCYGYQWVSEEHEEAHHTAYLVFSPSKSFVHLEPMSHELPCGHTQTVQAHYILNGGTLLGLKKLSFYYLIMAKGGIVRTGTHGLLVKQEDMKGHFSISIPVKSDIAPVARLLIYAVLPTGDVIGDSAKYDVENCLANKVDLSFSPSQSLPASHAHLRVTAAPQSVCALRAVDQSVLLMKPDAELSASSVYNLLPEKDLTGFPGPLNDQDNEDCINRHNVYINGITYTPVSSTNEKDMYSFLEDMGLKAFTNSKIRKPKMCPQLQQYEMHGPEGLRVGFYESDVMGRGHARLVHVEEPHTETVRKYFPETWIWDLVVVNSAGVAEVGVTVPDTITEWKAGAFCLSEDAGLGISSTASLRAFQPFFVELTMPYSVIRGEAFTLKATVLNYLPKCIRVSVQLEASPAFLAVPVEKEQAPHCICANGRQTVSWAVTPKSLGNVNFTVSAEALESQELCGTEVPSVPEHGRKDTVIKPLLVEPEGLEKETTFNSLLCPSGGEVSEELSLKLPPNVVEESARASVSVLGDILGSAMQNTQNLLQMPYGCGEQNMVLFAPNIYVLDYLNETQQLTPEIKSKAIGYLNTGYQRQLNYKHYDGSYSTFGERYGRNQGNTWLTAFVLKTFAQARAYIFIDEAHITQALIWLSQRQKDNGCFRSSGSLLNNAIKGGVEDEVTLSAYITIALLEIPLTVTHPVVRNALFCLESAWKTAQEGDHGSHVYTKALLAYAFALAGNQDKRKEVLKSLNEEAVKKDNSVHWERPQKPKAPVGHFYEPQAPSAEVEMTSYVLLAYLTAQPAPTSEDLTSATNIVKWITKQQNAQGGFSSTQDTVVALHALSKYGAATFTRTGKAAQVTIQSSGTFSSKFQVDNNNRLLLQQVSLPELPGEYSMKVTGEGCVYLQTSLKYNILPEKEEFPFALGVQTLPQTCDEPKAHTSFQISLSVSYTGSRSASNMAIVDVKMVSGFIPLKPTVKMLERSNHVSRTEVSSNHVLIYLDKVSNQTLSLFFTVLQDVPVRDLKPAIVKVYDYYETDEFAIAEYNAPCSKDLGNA

[5] = target: IG ALPHA-1 CHAIN C REGION (human) (UniProt P01876); test: human serum on M-LAC column, sequential displacer fractions, LC-MS/MS
[6] = target: T1, ALPHA-2-MACROGLOBULIN (human); test: as above

- binding [1]: binds
- binding [2]: binds
B1: Jacalin lectin, agarose-bound (protein)
chain 1: GKAFDDGAFTGIREINLSYNKETAIGDFQVVYDLNGSPYVGQNHKSFITGFTPVKISLDFPSEYIMEVSGYTGNVSGYVVVRSLTFKTNKKTYGPYGVTSGTPFNLPIENGLIVGFKGSIGYWLDYFSMYLSL
chain 2: NEQSGKSQTVIVGSWGAKVS
modifications: immobilized on agarose

- binding [3]: binds
- binding [4]: binds
- binding [5]: binds
- binding [1]: binds
- binding [6]: binds
B2: wheat germ agglutinin (WGA), agarose-bound (protein, UniProt P10968 27-197, looked up)
chain: QRCGEQGSNMECPNNLCCSQYGYCGMGGDYCGKGCQNGACWTSKRCGSQAGGATCTNNQCCSQYGYCGFGAEYCGAGCQGGPCRADIKCGSQAGGKLCPNNLCCSQWGFCGLGSEFCGGGCQSGACSTDKPCGKDAGGRVCTNNYCCSKWGSCGIGPGYCGAGCQSGGCDG
modifications: immobilized on agarose
